Earlier results, collected in US20080070938A1, “Medicinal composition for mitigating blood lipid or lowering blood homocysteine” (SANKYO COMPANY, LIMITED, priority 2002, published 2008).
At least one structure is not confirmed: it was looked up by name or label, or the drawing left a doubt.

Test system: patients with hypercholesterolemia
Conditions: 8 successive weeks; 16 patients with hypercholesterolemia; cited from earlier work

CC[C@H](C)C(=O)O[C@H]1C[C@H](O)C=C2C=C[C@H](C)[C@H](CC[C@@H](O)C[C@@H](O)CC(=O)O)[C@H]21 [pravastatin, (+)-(3R,5R)-3,5-dihydroxy-7-[(1S,2S,6S,8S,8aR)-6-hydroxy-2-methyl-8-[(S)-2-methylbutyryloxy]-1,2,6,7,8,8a-hexahydro-1-naphtyl]heptanoic acid]
blood homocysteine levels (in words): reduced
